# Library screen at single concentrations

Each number is a percent effect as filed.
The record does not define 0% and 100%; most values in the screen are far below 50% and negative numbers occur (in some assays of this library far below -100).
Compounds were drawn at random from those tested, without regard to their results.
Two or more numbers in one place are separate tests of the same structure; such repeats can differ widely.

Mtb cholesterol medium: 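Whole-cell growth test on Mycobacterium tuberculosis, read after 4 days in a medium based on cholesterol and the lipid DPPC; the read-out is not stated. Tested at 50 µM. The record gives no direction; compounds that gave an IC50 in retests scored well above the rest, so higher reads as more growth inhibition. About 69,000 compounds were tested under these conditions; 0.54% (about 370) showed 50% or more at least once.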
Mtb glucose medium: 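Phenotypic screen: M. tuberculosis growth, glucose 7H9 medium, 3 days; the read-out is not stated. Compounds at 50 µM. The record gives no direction; compounds that gave an IC50 in retests scored well above the rest, so higher reads as more growth inhibition. About 69,000 compounds were tested under these conditions; 1.1% (about 760) showed 50% or more at least once.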

With N#Cc1cccc(N2CC3(CCN(C(=O)c4ccncc4)C3)CC2=O)c1.O=C(O)C(F)(F)F (configuration not stated) the screen gave Mtb cholesterol medium: -8.083%; Mtb glucose medium: -21.67%.
With COc1ccc(OC)c(C(=O)Nc2cccnc2-n2cncn2)c1 the screen gave Mtb cholesterol medium: 13.45%; Mtb glucose medium: 15.02% and -5.11%.
With CC(OCC1CC1)C(=O)N1CCCN(c2nc3ccccc3[nH]2)CC1 (configuration not stated) the screen gave Mtb cholesterol medium: -0.6751%; Mtb glucose medium: -6.418%.
With O=C(O)C(F)(F)F.O=C(O)C(F)(F)F.O=C(O)C(F)(F)F.c1cncc(CN2CCCC3(COCCN(c4cnccn4)C3)C2)c1 (configuration not stated) the screen gave Mtb cholesterol medium: -5.427%; Mtb glucose medium: 6.017% and 1.911%.
With Cc1[nH]ncc1CCCNC(=O)Nc1ccc(S(C)(=O)=O)nc1 the screen gave Mtb cholesterol medium: -14.86%; Mtb glucose medium: -10.65% and -27.29%.
With O=C1COc2ccc(Cl)cc2CN1CC1CC1 the screen gave Mtb cholesterol medium: -8.021%; Mtb glucose medium: -9.861%.
With CC(OCC(F)(F)F)C(=O)NCc1ccc(-n2cncn2)nc1 (configuration not stated) the screen gave Mtb cholesterol medium: 0.8883%; Mtb glucose medium: 12.77%.
With Cc1cccc2[nH]c(C3CCCN(Cc4ccc(CO)o4)C3)nc12 (configuration not stated) the screen gave Mtb cholesterol medium: 9.24% and -1.73%; Mtb glucose medium: -3.98%.
With CC(C)c1ccc(O)c(C(=O)N2CCN(Cc3cscn3)CC2)c1 the screen gave Mtb cholesterol medium: -12.39%; Mtb glucose medium: -5.276%.
With COc1ccc(-c2cccc3c2OC(CN)C3)cc1F (configuration not stated) the screen gave Mtb cholesterol medium: 29.47%; Mtb glucose medium: 39.23% and 49.42%.
With Cn1cc(CNc2ccc(CCN3CCC(C(N)=O)CC3)cc2)cn1 the screen gave Mtb cholesterol medium: -1.347%; Mtb glucose medium: -3.043% and 7.414%.
With CCc1ccc(CC)c(NCC(=O)N2CCCC(NC(C)=O)C2)c1 (configuration not stated) the screen gave Mtb cholesterol medium: -9.626%; Mtb glucose medium: -17.02%.
With Cc1cnc(NC(=O)c2cccc(CN(C)Cc3ncccc3C)c2)s1 the screen gave Mtb cholesterol medium: 33.34%; Mtb glucose medium: 8.092%.
With CC(NC(=O)COc1ccc(F)cc1)c1nnc2n1CCCCC2 (configuration not stated) the screen gave Mtb cholesterol medium: -6.569%; Mtb glucose medium: 25.16%.
With c1coc(CNc2nnc(Cc3ccsc3)o2)c1 the screen gave Mtb cholesterol medium: 37.08%; Mtb glucose medium: 45.34%.
With CCN1CCC(CNCc2c[nH]nc2C(C)(C)C)C1.Cl (configuration not stated) the screen gave Mtb cholesterol medium: 53.32%; Mtb glucose medium: 76.39%.
With CCC(CNC1CCN(C(=O)N(C)C)CC1)Oc1ccccc1C (configuration not stated) the screen gave Mtb cholesterol medium: -37.01%; Mtb glucose medium: -56.17%.
With COc1ccc(CN(Cc2ccco2)Cc2[nH]cnc2C)c(OC)c1.O=C(O)CC(O)(CC(=O)O)C(=O)O the screen gave Mtb cholesterol medium: 4.069% and 0.6752%; Mtb glucose medium: 6.625%.
With [H][C@@]12CN(Cc3cccnc3)C(=O)N1CCN(S(=O)(=O)c1ccccc1)C2 the screen gave Mtb cholesterol medium: -27.58%; Mtb glucose medium: -6.609% and -1.124%.
With CCc1ccc(S(=O)(=O)Nc2cc(C(=O)O)c(F)cc2F)s1 the screen gave Mtb cholesterol medium: -22.71%; Mtb glucose medium: 13.95%.
With COCCN1C(=O)CC[C@]12CC[C@@H](NCc1nccs1)CC2.O=C(O)C(F)(F)F the screen gave Mtb cholesterol medium: 8.172%; Mtb glucose medium: 15.38% and -5.751%.
With Cc1nccn1C1CCCN(C(=O)c2ccc3nnc(C)n3c2)C1 (configuration not stated) the screen gave Mtb cholesterol medium: -12.76%; Mtb glucose medium: -11.08%.
With O=C(CCS(=O)(=O)c1ccccc1)N1CCCC(n2cccn2)C1 (configuration not stated) the screen gave Mtb cholesterol medium: 1.281%; Mtb glucose medium: -22.24%.
With CCN(Cc1cccc(-c2ccncc2)c1)S(N)(=O)=O the screen gave Mtb cholesterol medium: 21.55%; Mtb glucose medium: -12.7%.
With CCc1ncc2c(n1)CN(C(=O)CNC(=O)C(C)C)C2 the screen gave Mtb cholesterol medium: -11.43%; Mtb glucose medium: -10.46% and -68.95%.

Once more, the final 3:

SMILES,Mtb cholesterol medium,Mtb glucose medium
O=C(CCS(=O)(=O)c1ccccc1)N1CCCC(n2cccn2)C1 (configuration not stated),1.281,-22.24
CCN(Cc1cccc(-c2ccncc2)c1)S(N)(=O)=O,21.55,-12.7
CCc1ncc2c(n1)CN(C(=O)CNC(=O)C(C)C)C2,-11.43,-10.46 and -68.95

From ChEMBL document CHEMBL3988442, “University of Dundee, Small-Polar-MMV Screening Library” (2021).